Results published in patent publication US20210213135A1 (Purdue Research Foundation, priority 2018, published 2021).

Tested on: Swiss Webster fracture-bearing mice (fracture callus)
Experiment: micro CT of the fracture callus in the femur fracture model
Assay type: in vivo
Conditions: 4 weeks; 1 and 10 nmol/day

## TP508 D10: SEQ ID NO: 12, Thrombin fragment TP508 with 10 aspartate acids: DDDDDDDDDDAGYKPDEGKRGDACEGDSGGPFV (TP 508_D10)
  BV/TV: dose dependent manner
